# System: SK-N-BE(2) cells
# Assay: RNAseq transcriptomics of CBD response
# Type: cell-based, human
# Details: 20 μM CBD
# Method: In order to compare and contrast proteomic derived mechanistic components of the CBD response to that of transcriptomic components, the present inventors additionally performed RNAseq analysis of SK-N-BE(2) cells exposed to vehicle or 20 μM CBD at the time-points indicated in FIG. 1C. 5,643 differentially expressed genes were identified in the CBD response gene with a FDR<1%, which was further reduced to a list of 139 genes with an LFC>=1. […] While most of these annotations are supported by either the transcriptome or the proteome, dysregulation of cholesterol metabolism is supported by both. […] As a result of the agreement between proteomic and transcriptomic data, we focused our study thereafter on determining the role of cholesterol homeostasis in the CBD drug response.
# Sequencing was performed on seven consecutive lanes. Median read counts per lane were ˜49,000 with a CV of ˜7%. Starting with 228 fastq files, each lane set was concatenated per condition. Using Trimmomtic-0.36, base pairs were trimmed if they dropped below a PHRED score of 15 within a sliding window of 4 bp. Remaining reads shorter than 35 base pairs were removed. Illumina adapter sequences were also clipped using Trimmomatic. […] Read alignment was accomplished using Tophat-2.0.13 and Cufflinks/Cuffdiff 2.2.1 was used for FPKM quantitation and differential expression analysis per time point.
structure (smiles),measurement,setting,value
"C=C(C)[C@@H]1CCC(C)=C[C@H]1c1c(O)cc(CCCCC)cc1O [CBD, cannabidiol]",differentially expressed genes,FDR<1%,"5,643"
same,differentially expressed genes,FDR<1% and LFC>=1,139

# From patent publication US20210244686A1, “Novel Systems And Methods For The Therapeutic Use of Cannabinoids or Cannabinoid Analogs to Increase The Lipid Order of Cholesterol Containing Cell Membranes” (The Regents of the University of Colorado a body corporate, priority 2018, published 2021)
